Values joined by “and” are separate entries in the source; they are usually repeats but may differ in a detail not shown here. Equal entries are not always repeated. Most of the hits are listed elsewhere, so they are rarer here than in the full data. Results filed as inconclusive are left out. Active and inactive are the calls of the source. Unless noted, calls follow the shape of the dose curve; as a rule, active = well fitted curve in the direction sought with a large enough effect; inconclusive = small, poorly fitted or top-dose-only effect, or another doubt; inactive = no such curve, though single readings can be large; an effect the other way counts as inactive or inconclusive.
Columns and labels:
[1] = biological target: Peroxisome proliferator-activated receptor alpha (Homo sapiens) (UniProt Q07869); experiment: qHTS assay for small molecule agonists of the peroxisome proliferator-activated receptor alpha (PPARalpha) signaling pathway (AID 651778); details: PathHunter PPARalpha complementation, chemiluminescence, 6 h; active compounds read high; also: % of control where 0% means no effect
How it was run: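 Cells plated at 2,000/well and held overnight at 37 C, 5% CO2, then compound added by pin tool for 6 hr; after PathHunter detection reagent and 60 min at room temperature, chemiluminescence from enzyme complementation was read.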

Sequences of proteins named here, by UniProt entry; tags and fusion partners are left off. A change or cut given only in a name is not applied to a line headed by its entry.
UniProt Q07869: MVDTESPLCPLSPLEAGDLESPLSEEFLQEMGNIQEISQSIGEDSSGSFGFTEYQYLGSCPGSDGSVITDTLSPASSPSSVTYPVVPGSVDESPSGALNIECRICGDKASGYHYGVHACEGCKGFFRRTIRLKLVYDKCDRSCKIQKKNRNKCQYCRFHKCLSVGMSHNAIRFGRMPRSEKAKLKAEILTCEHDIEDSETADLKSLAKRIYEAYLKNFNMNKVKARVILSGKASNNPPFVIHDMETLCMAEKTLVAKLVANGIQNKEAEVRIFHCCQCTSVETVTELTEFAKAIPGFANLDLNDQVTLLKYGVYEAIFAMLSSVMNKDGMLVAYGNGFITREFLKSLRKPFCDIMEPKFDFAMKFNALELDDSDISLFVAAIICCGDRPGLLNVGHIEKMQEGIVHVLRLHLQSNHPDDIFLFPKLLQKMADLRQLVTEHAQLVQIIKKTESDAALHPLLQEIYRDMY
UniProt P51449: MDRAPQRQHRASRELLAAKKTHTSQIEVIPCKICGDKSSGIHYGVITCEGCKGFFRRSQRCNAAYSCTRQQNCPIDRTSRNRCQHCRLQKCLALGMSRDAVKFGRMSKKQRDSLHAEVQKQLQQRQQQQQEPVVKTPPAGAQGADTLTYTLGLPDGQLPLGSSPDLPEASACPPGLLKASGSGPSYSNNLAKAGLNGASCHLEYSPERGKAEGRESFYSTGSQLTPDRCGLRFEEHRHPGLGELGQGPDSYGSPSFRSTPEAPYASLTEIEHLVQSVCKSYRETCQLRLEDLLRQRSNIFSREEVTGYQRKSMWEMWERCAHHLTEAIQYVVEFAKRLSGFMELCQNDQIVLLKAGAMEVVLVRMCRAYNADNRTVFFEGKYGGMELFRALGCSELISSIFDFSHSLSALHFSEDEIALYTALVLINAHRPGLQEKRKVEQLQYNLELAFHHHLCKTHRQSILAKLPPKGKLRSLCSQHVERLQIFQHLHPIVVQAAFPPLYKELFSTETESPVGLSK

[2] = biological target: Nuclear receptor ROR-gamma (Homo sapiens) (UniProt P51449); experiment: qHTS assay for small molecule antagonists of the retinoid-related orphan receptor gamma (ROR-gamma) signaling pathway (AID 651802); details: ROR-gamma antagonist cell reporter assay; at 92.2 µM (top of the series);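 also: luciferase reporter luminescence driven by ROR response element; % is scaled to controls: 0 for no effect and ±100 for the full control effect; nearly all actives have a fitted effect of over 60% in size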
Description: (§1) National Center for Advancing Translational Sciences [NCATS]
(§2) NIH Chemical Genomics Center [NCGC]
National Institutes of Environmental Health Sciences [NIEHS]
National Toxicology Program [NTP]
Nuclear steroid hormone receptors are involved in many biological processes including inflammatory responses, cell proliferation, and apoptosis. Environmental factors or compounds disrupting these nuclear receptor pathways and gene expression may promote susceptibility to immunotoxicants and autoimmune diseases. One important group of these expression factors are the retinoid-related orphan receptors. To assess compounds that may interfere with the retinoid-related orphan receptor gamma (ROR-gamma) transcription factor, a cell-based luciferase assay was used.
The CHO cell-based assay utilizes a TET-inducible ROR expression factor and ROR response element-LUC reporter gene. Reporter activity was induced using doxycycline and measured after 16hr incubation. Luminescence was read using Viewlux (PerkinElmer), where a decrease in reporter activity would show a decrease in luminescence.
1,000 cells in 4 uL/well were dispensed into white wall/solid bottom 1536-well plates using a Multidrop Combi (Thermo Scientific) dispenser. Following transfer of 23 nL compound or DMSO vehicle by a pin tool, the plates were treated with 1 ul doxycycline to induce reporter gene activity. After 16hr incubation at 37C and 5% CO2, 5uL one-glo (promega) was added to each plate and following 30 min incubation at room temperature, luminescence was quantified on a ViewLux (PerkinElmer) plate reader.

[3] = qHTS assay for small molecule antagonists of the retinoid-related orphan receptor gamma (ROR-gamma) signaling pathway - cell viability counter screen (AID 720652; active = well fitted curve in the direction sought with a large enough effect in the repeat runs; an effect the other way counts as inactive or inconclusive;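 also: compound exposure lasted 16 hr before ATP read; % is scaled to controls: 0 for no effect and ±100 for the full control effect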); details: RORgamma reporter cell line viability counter screen; at 92.2 µM (top of the series)
How it was run: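 Luminescence from CellTiter-Glo after 30 min at room temperature reported cellular ATP as the cytotoxicity measure. Cells were the CHO reporter line with doxycycline-induced ROR-gamma expression, exposed to compound for 16 hr at 37 C.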

[4] = qHTS assay for cell viability of the p53RE-bla HCT-116 cell line (AID 743292); details: p53RE-bla HCT-116 viability, ATP luminescence, 16 h; at 95 µM (top of the series); also: % is scaled to controls: 0 for no effect and ±100 for the full control effect; nearly all actives have a fitted effect of over 55% in size
How it was run: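 Luminescent ATP quantitation (CellTiter-Glo) served as the viability read-out; reagent was added after 16 h compound exposure at 37 C and read after 30 min at room temperature. Cells: p53RE-bla HCT-116, 4,000 per well.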

[5] = qHTS Assay for Identifying Gametocytocidal Compounds (AID 743244);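 also: % is scaled to controls: 0 for no effect and ±100 for the full control effect; actives lower the fluorescent signal which means gametocytes are killed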; details: P. falciparum 3D7 stage III-V gametocytes, alamarBlue, 72 h; active compounds read low
How it was run: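 Compounds are pinned into medium, gametocytes (stage III–V, 3D7, 20,000 cells/well) added, and plates held 72 h at 37 °C in 5% CO2. AlamarBlue follows for 24 h before fluorescence reading.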

[6] = qHTS assay for measurement of the activity of small molecule inhibitors on Zika virus induced Caspase-3 activity in human iPSC derived neural progenitor cells (hNPCs) (AID 1224857); details: hNPCs ZIKV-induced caspase-3/7, Caspase-Glo luminescence, 6 h; at 45.7 µM (top of the series); also: % of control where 0% means no effect; nearly all actives have a fitted effect of over 65% in size
Description: as §1
Johns Hopkins University School of Medicine
Increase in the Caspase-3 activity indicates an activation of apoptosis cell death pathway caused by Zika virus infection in certain types of neuronal cells including human neural progenitor cells (hNPCs), astrocytes, and astrocytoma cell line (SNB-19). This cell-based caspase-3 activity assay measures the increased caspase-3 activity in the human iPSC derived neural progenitor cells (hNPCs) after a 6-hour Zika virus infection with a luminescence readout. A decrease in the luminescence signal in this assay by small molecule treatment indicates an inhibitory effect of that small molecule on the Zika virus induced caspase-3 activity that may correlate with its effect on reduction of Zika virus caused cell death.
The medium for hNPCs consists of DMEM/F12, N2 supplement (ThermoFisher, Cat.# 17502048), NEAA (ThermoFisher, Cat. # 11140050), 2 ug/ml heparin, 2 uM cyclopamine, and B27 (ThermoFisher, Cat. # 17504044). A Caspase-Glo 3/7 assay kit (catalog number G8092; Promega, Madison, WI) was used to detect caspase-3 activity induced by Zika virus infection in human cells. […] The luminescence intensity of the assay plates was measured using a ViewLux plate reader (PerkinElmer). […] The percentage inhibitions of the increased Caspase-3 activity by small molecule inhibitors were then calculated.

[7] = qHTS assay for measurement of the activity of small molecule inhibitors on Zika virus induced Caspase-3 activity in human astrocytoma cells (AID 1224859); details: SNB-19 ZIKV-induced caspase-3/7, luminescence, 6 h; at 45.7 µM (top of the series);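 also: plate controls were ZIKV-infected untreated cells for no effect and uninfected cells for full effect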
How it was run: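 Human SNB-19 astrocytoma cells in RPMI 1640 with 10% FBS receive compound one hour ahead of Zika virus at 2 FFU/cell. After 6 h infection, caspase-3/7 activity is detected by Caspase-Glo luminescence.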

[8] = qHTS assay to identify small molecule inhibitors of chordoma cells - UCH-1 (AID 1259355); details: UCH-1 chordoma viability, CellTiter-Glo, 48 h, combination; at 46.1 µM (top of the series); also: % is scaled to controls: 0 for no effect and ±100 for the full control effect; nearly all actives have a fitted effect of over 55% in size
How it was run: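 Luminescent ATP read-out (CellTiter-Glo, 30min at room temperature) measured viability of UCH-1 cells exposed for 48hr to test drugs at 15 concentrations, co-dosed with a five-agent combination of auranofin, camptothecin, doxorubicin, rubitecan and topotecan.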

[9] = qHTS assay to identify small molecule inhibitors of chordoma cells - UCH-2 (AID 1259356); details: UCH-2 chordoma viability, CellTiter-Glo ATP luminescence, 48 h; at 46.1 µM (top of the series); also: % is scaled to controls: 0 for no effect and ±100 for the full control effect
Description: as §2
Chordoma is a rare and slow growing tumor that can occur anywhere along the spine, from the base of the skull to the tailbone. Current treatment options for chordoma is surgery and radiation therapy for those who are not candidates for surgery. But chordomas tend to return in the same location or surrounding areas of the original tumor after surgery and/or radiation. Chemotherapy can slow down the progression of the tumor. As chordoma is slow growing, the general cytotoxic agents that kill fast growing cells are ineffective, and some patients have been reported to respond to molecularly targeted drugs.
NCATS Pharmaceutical Collection (NPC) containing approximately 3000 clinically approved and investigational drugs were used to screen at 15 concentrations in a chordoma cell lines, UCH-2, to identify small molecule compounds that can inhibit chordoma cell growth.
NCGC Assay Protocol Summary:
Human chordoma cell line UCH-2 was dispensed at 800 per well in 4uL of culture medium into white solid bottom 1536-well plates (Corning Life Sciences, Corning, NY) using a Multidrop Combi (Thermo Scientific, Waltham, MA) dispenser. […] After 30min incubation at room temperature, the luminescence signal was quantified using a ViewLux plate reader (PerkinElmer, Shelton, CT).

[10] = NS1 protein of Zika virus - qHTS assay to identify small molecule inhibitors in human HEK 293 cells (AID 1347053); details: HEK293 ZIKV MR766 infection, NS1 TR-FRET, 24 h; at 46.1 µM (top of the series);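 also: plate controls were infected untreated cells for no effect and uninfected cells for full effect; nearly all actives have a fitted effect of over 55% in size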
How it was run: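 HEK 293 cells, seeded 20 h at 37 C, were pretreated with compound 1 h, then infected with ZIKV MR766 (MOI = 0.5) for 24 h. NS1 was read by TR-FRET with two anti-NS1 antibodies, normalized to uninfected and infected wells.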

Cc1ccc(O)cc1C
inactive: max response [1] -3.19% | activity change, negative = inhibition [2] 22% | activity change, negative = cytotoxicity [3] 9.89% | activity change, negative = cytotoxicity [4] 1.1%

Cc1ccc2ccccc2c1C
inactive: max response [1] -5.07% | activity change, negative = inhibition [2] 26.2% | activity change, negative = cytotoxicity [3] -4.12% | activity change, negative = cytotoxicity [4] 2.31%

CC(C)(C)c1ccc(O)cc1
inactive: max response [1] -1.13% | max response [5] -9.25% | activity change, negative = cytotoxicity [4] 2.96% | activity change, negative = inhibition [6] 21.7% | activity change, negative = inhibition [7] 10.2% | activity, negative = inhibition [8] -1.93% | activity change, negative = inhibition [9] 0% | activity change, negative = inhibition [10] -2.4%

O=[N+]([O-])c1ccccc1Cl
inactive: max response [1] -0.973% and -2.35% | activity change, negative = inhibition [2] -4.23% | activity change, negative = cytotoxicity [3] 4.96% | activity change, negative = cytotoxicity [4] 4.33% and -10.3%

Oc1c(Cl)cc(Cl)cc1Cl
inactive: max response [1] 7.94% and -0.431% | activity change, negative = cytotoxicity [3] -5.3% | activity change, negative = cytotoxicity [4] -20.2% and -8.35%

— PubChem BioAssay (NCATS)
